From PMC9798675
Results are given in words; binding and its absence hold for the method and conditions named. For some assays here: Binding seen in cells or lysates may run through a third protein. Some entries that bind do so weakly or less than the wild type.

Amino acid sequences for entries named in this document (tags omitted). Residues count along the entry.
UniProt P16234, residues 24-1089: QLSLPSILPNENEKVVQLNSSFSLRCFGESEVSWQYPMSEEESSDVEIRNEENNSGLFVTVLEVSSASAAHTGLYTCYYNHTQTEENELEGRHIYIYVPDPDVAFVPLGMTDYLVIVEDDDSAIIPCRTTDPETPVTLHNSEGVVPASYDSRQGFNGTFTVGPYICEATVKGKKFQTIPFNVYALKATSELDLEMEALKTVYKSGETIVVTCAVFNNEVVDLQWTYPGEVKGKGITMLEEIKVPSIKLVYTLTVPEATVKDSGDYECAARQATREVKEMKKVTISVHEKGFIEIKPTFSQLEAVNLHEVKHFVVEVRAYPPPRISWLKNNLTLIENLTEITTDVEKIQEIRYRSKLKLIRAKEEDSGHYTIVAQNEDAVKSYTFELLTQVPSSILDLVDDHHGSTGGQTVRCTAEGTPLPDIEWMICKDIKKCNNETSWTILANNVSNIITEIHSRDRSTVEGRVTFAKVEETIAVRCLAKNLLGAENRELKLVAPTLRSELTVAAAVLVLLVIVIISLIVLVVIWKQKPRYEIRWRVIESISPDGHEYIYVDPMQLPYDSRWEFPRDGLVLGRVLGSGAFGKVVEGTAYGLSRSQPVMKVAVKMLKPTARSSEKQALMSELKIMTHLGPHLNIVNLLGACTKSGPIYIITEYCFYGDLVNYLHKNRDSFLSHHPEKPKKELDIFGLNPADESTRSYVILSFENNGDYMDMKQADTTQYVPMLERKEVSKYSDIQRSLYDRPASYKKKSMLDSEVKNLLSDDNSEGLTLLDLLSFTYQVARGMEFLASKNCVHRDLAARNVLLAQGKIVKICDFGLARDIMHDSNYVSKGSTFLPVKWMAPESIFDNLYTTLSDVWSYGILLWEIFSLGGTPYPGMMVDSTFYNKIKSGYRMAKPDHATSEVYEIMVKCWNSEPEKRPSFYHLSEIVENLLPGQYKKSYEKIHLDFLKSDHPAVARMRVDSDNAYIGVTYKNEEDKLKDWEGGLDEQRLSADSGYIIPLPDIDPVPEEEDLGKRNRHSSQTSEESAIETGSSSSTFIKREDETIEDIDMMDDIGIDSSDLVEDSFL

T1: Sushi domain-containing protein 4 (human SUSD4) (human) (UniProt Q5VX71)
T1 sequence: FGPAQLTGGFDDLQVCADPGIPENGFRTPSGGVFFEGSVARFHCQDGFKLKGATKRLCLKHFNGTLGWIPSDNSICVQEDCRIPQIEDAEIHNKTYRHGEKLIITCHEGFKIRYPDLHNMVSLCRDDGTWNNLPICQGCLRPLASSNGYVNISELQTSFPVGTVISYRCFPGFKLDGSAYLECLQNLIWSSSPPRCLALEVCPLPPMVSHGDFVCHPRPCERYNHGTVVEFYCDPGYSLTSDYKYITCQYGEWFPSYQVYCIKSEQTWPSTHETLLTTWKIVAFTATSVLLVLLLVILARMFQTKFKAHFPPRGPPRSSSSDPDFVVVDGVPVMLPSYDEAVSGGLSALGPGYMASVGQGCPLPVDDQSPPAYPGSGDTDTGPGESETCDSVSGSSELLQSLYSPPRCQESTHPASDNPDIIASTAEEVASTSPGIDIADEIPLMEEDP


Key:
[1] = biological target: T1, Sushi domain-containing protein 4 (human SUSD4) (human); test: co-IP; 500 ug total protein of NP-40 lysates of BT-20 and MDA-MB-468 cells stably expressing SUSD4, overnight with 5 ug anti-SUSD4 antibody, protein G Dynabeads, three washes with NP40 buffer
[2] = biological target: Platelet-derived growth factor receptor alpha (PDGFRα) (human (endogenous in BT-20 and MDA-MB-468)) (UniProt P16234); test: proximity ligation; BT-20 and MDA-MB-468 cells stably expressing SUSD4; fixed with 4% paraformaldehyde, permeabilised (0.1% Triton X-100), primary antibodies 1 h, Duolink or NaveniFlex kit, confocal microscopy
[3] = biological target: Epithelial Growth Factor Receptor (EGFR) (human (endogenous in BT-20 and MDA-MB-468)) (UniProt P00533); test: as above
[4] = biological target: Platelet-derived growth factor receptor alpha (PDGFRα) (human (endogenous in BT-20 and MDA-MB-468)) (UniProt P16234); test: ELISA; sandwich ELISA: anti-PDGFR capture antibody (100 ng) coated on MaxiSorp plates, 1100 ug total NP40 cell lysate of SUSD4-expressing BT-20 cells overnight at 4 °C, detection with anti-SUSD4 (130 ng); also with lysates of CRISPR/Cas9 EGFR knockout BT-20 cells expressing SUSD4
[5] = biological target: Epithelial Growth Factor Receptor (EGFR) (human (endogenous in BT-20 and MDA-MB-468)) (UniProt P00533); test: ELISA; sandwich ELISA: anti-EGFR capture antibody (200 ng) coated on MaxiSorp plates, 600 ug total NP40 cell lysate of SUSD4-expressing BT-20 or MDA-MB-468 cells overnight at 4 °C, detection with anti-SUSD4 (130 ng)

| binding [1] | binding [2] | binding [3] | binding [4] | binding [5] | Molecule |
| --- | --- | --- | --- | --- | --- |
| binds | – | – | – | – | Epithelial Growth Factor Receptor (EGFR) (from UniProt P00533 25-1210) |
| – | binds | binds | binds | binds | Sushi domain-containing protein 4 (human SUSD4) (protein, UniProt Q5VX71 42-490) FGPAQLTGGFDDLQVCADPGIPENGFRTPSGGVFFEGSVARFHCQDGFKLKGATKRLCLKHFNGTLGWIPSDNSICVQEDCRIPQIEDAEIHNKTYRHGEKLIITCHEGFKIRYPDLHNMVSLCRDDGTWNNLPICQGCLRPLASSNGYVNISELQTSFPVGTVISYRCFPGFKLDGSAYLECLQNLIWSSSPPRCLALEVCPLPPMVSHGDFVCHPRPCERYNHGTVVEFYCDPGYSLTSDYKYITCQYGEWFPSYQVYCIKSEQTWPSTHETLLTTWKIVAFTATSVLLVLLLVILARMFQTKFKAHFPPRGPPRSSSSDPDFVVVDGVPVMLPSYDEAVSGGLSALGPGYMASVGQGCPLPVDDQSPPAYPGSGDTDTGPGESETCDSVSGSSELLQSLYSPPRCQESTHPASDNPDIIASTAEEVASTSPGIDIADEIPLMEEDP |
